Results reported in ChEMBL document CHEMBL5030540 (J Med Chem, 2021).

By UniProt entry, the sequences of proteins in these tests, tags left out.
UniProt P42866, whole entry: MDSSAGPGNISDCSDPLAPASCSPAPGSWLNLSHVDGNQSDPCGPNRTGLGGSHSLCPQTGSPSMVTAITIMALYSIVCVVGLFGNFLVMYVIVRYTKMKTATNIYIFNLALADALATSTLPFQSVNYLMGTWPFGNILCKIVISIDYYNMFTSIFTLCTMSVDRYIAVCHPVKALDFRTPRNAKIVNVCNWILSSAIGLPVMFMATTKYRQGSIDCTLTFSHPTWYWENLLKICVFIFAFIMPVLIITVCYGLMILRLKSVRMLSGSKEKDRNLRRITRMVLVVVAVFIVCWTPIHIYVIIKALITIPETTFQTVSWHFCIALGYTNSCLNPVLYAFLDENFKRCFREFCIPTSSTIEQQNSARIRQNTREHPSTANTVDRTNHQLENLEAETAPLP

Molecular target: Mu-type opioid receptor (Mus musculus) (UniProt P42866)
Assay: Partial agonist activity at mouse MOR expressed in HEK293T cells assessed as Nb33 recruitment by BRET assay relative to control
Format: functional, cell-based
In short: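 HEK293T cells transfected with murine MOR-NanoLuc (1 μg) and Nb33-Venus (4 μg) using PEI and used 48 h later. Cells in PBS given coelenterazine H (5 μM), ligand added at 5 min, BRET read 10 min later. Three-parameter fit; ≥3 independent trials in triplicate.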

`CO[C@@]12CC[C@@]3(C[C@@H]1[C@@](C)(O)C(C)(C)C)[C@H]1Cc4ccc(O)c5c4[C@@]3(CCN1CC1CC1)[C@H]2O5` gave an Emax of 24%.
